Assay [1] has as its target protein arginine methyltransferase 5 (PRMT5) (human (endogenous in MCF7)) (UniProt O14744). As to the kind of experiment: co-IP; endogenous proteins, MCF7 whole cell lysates; PRMT5 immunoprecipitated, IgG as negative control.
Assay [2] concerns the target GST-AKT1-PH (human) (UniProt P31749). As to the kind of experiment: pull-down; GST pulldown from HEK293 cells transfected with indicated constructs; also with depletion of PRMT5 (Supplementary Fig. 5a).
Assay [3] concerns the target AKT1 (human (endogenous in MCF7)) (UniProt P31749). Nature of the assay: co-IP; endogenous proteins, MCF7 whole cell lysates; AKT1 immunoprecipitated, IgG as negative control.
Assay [4] shares this target. Nature of the assay: co-IP; MCF7 cells serum-starved, then 100 nM insulin (or EGF) for indicated times; also PI3K inhibitors LY294002 (20 uM), Wortmannin (10 uM), Buparlisib (10 uM) for 12 h before insulin for 30 min.
In assay [5] the target is HA-AKT1 (human) (UniProt P31749). Nature of the assay: co-IP; HEK293T cells transfected with indicated constructs; IB of WCLs and IP products.
Assay [6] deals with HA-AKT1-R25C (human) (UniProt P31749). The assay is described as above.

Sequences of proteins named here, by UniProt entry; tags and fusion partners are left off. A change or cut given only in a name is not applied to a line headed by its entry. A line that says so, or that is headed by a name, gives the form on record, which may keep a tag or linker. Residues count along the entry.
UniProt O14744: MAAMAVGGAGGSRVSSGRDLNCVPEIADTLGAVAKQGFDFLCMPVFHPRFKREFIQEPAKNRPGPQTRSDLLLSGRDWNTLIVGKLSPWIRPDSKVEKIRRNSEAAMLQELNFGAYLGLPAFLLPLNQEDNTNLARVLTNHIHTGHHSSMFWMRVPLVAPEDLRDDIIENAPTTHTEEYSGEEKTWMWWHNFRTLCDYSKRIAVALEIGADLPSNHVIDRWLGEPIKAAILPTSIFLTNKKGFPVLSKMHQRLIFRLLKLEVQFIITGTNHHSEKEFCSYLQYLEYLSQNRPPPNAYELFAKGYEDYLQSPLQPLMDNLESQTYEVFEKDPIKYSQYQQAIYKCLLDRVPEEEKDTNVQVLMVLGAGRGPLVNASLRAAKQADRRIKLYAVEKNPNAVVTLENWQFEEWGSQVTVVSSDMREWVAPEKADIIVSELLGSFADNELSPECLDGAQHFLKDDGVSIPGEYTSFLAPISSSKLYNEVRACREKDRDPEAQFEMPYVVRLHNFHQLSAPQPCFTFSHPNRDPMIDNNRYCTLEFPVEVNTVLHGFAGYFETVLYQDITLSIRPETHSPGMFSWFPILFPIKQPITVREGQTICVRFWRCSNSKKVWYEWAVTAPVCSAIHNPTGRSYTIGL
UniProt P31749: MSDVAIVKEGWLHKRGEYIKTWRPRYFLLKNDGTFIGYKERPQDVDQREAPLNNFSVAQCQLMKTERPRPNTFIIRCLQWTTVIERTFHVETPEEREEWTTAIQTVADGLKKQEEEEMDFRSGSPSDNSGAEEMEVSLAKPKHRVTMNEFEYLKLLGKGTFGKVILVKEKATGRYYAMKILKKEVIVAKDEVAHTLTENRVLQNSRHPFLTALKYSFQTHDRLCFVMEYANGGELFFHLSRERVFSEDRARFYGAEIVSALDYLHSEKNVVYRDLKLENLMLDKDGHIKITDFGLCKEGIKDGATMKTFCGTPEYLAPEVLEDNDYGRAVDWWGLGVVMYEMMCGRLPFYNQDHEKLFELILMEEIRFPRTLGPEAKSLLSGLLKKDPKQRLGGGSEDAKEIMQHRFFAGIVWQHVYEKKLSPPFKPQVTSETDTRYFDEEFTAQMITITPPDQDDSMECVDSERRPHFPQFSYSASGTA
GST-AKT1-PH: residues 5-108 of P31749
HA-AKT1-KD-R391K (P31749, form named): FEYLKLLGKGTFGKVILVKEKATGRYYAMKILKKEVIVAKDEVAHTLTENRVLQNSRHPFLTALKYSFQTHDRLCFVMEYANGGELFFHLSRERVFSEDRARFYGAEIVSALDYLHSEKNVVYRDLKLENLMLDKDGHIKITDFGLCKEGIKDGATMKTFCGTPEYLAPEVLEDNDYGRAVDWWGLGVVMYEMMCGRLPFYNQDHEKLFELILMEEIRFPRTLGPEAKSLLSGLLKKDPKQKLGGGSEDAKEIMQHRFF
UniProt Q99873: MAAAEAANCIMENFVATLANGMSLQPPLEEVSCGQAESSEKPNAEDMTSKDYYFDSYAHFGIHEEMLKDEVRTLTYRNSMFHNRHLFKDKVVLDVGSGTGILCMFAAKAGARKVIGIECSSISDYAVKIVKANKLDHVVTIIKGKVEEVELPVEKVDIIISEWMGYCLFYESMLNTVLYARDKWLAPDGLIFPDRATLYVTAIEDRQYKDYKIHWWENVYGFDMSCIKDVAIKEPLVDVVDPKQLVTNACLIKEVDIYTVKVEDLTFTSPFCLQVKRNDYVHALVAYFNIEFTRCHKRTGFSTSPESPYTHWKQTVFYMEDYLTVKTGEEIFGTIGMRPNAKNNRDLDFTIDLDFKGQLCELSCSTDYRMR
UniProt P23443: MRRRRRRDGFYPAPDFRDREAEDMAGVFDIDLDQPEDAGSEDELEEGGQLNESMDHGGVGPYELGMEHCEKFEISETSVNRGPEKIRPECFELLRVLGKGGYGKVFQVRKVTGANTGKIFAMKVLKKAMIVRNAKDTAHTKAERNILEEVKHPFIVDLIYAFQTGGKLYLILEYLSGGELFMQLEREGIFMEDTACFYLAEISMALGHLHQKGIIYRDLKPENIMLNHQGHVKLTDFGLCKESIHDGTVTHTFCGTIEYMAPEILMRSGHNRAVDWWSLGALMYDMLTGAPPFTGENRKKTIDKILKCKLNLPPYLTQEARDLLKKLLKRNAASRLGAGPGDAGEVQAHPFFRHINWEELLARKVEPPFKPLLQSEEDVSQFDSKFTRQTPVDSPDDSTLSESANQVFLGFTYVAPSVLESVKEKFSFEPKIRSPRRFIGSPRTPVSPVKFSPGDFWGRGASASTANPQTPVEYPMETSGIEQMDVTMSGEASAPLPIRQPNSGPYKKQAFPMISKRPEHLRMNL

Results are given in words; binding and its absence hold for the method and conditions named. In cells and extracts the contact can be indirect. Some entries that bind do so weakly or less than the wild type.

For the substance AKT1 (from UniProt P31749 1-480), in assay [1], the binding entry was “binds”.
For the substance “HA-AKT1-KD (from UniProt P31749 150-408) (domain or fragment)”, the binding entry in assay [2] is recorded as “binds”.
On to “HA-AKT1-KD-R391K (from UniProt P31749 150-408) (domain or fragment)”, for which, in assay [2], the binding entry was “binds”.
On to “PRMT1 (from UniProt Q99873 1-371) (enzyme)”, for which the binding result in assay [3] is reported as “no binding”.
For the substance S6K1 (from UniProt P23443 1-525), the binding entry in assay [1] was “no binding”.
Turning to “protein arginine methyltransferase 5 (PRMT5) (from UniProt O14744 1-637) (enzyme)”, the binding result in assay [3] and in assay [4] was “binds” throughout.
On to “protein arginine methyltransferase 5 (PRMT5), in cells transfected with AKT constructs (from UniProt O14744 1-637) (enzyme)”, for which the binding entry in assay [5] and in assay [6] was “binds” throughout.

Source of the values: paper PMC8187744.
